For four molecules, binding results are on record in PMC9493394.

These are yes or no findings as the source states them, for the method shown. Binding seen in cells or lysates may run through a third protein. Here binding means that the protein was enriched with, or labelled near, the bait; the list need not be complete.

To fix the notation:
B1: RPN1 (protein, UniProt P04843 24-607)
chain: ASSEAPPLINEDVKRTVDLSSHLAKVTAEVVLAHLGGGSTSRATSFLLALEPELEARLAHLGVQVKGEDEEENNLEVRETKIKGKSGRFFTVKLPVALDPGAKISVIVETVYTHVLHPYPTQITQSEKQFVVFEGNHYFYSPYPTKTQTMRVKLASRNVESYTKLGNPTRSEDLLDYGPFRDVPAYSQDTFKVHYENNSPFLTITSMTRVIEVSHWGNIAVEENVDLKHTGAVLKGPFSRYDYQRQPDSGISSIRSFKTILPAAAQDVYYRDEIGNVSTSHLLILDDSVEMEIRPRFPLFGGWKTHYIVGYNLPSYEYLYNLGDQYALKMRFVDHVFDEQVIDSLTVKIILPEGAKNIEIDSPYEISRAPDELHYTYLDTFGRPVIVAYKKNLVEQHIQDIVVHYTFNKVLMLQEPLLVVAAFYILFFTVIIYVRLDFSITKDPAAEARMKVACITEQVLTLVNKRIGLYRHFDETVNRYKQSRDISTLNSGKKSLETEHKALTSEIALLQSRLKTEGSDLCDRVSEMQKLDAQVKELVLKSAVEAERLVAGKLKKDTYIENEKLISGKRQELVTKIDHILDAL
B2: Hsp47 (SerpinH1) (protein, UniProt P50454 19-418)
chain: AEVKKPAAAAAPGTAEKLSPKAATLAERSAGLAFSLYQAMAKDQAVENILVSPVVVASSLGLVSLGGKATTASQAKAVLSAEQLRDEEVHAGLGELLRSLSNSTARNVTWKLGSRLYGPSSVSFADDFVRSSKQHYNCEHSKINFRDKRSALQSINEWAAQTTDGKLPEVTKDVERTDGALLVNAMFFKPHWDEKFHHKMVDNRGFMVTRSYTVGVMMMHRTGLYNYYDDEKEKLQIVEMPLAHKLSSLIILMPHHVEPLERLEKLLTKEQLKIWMGKMQKKAVAISLPKGVVEVTHDLQKHLAGLGLTEAIDKNKADLSRMSGKKDLYLASVFHATAFELDTDGNPFDQDIYGREELRSPKLFYADHPFIFLVRDTQSGSLLFIGRLVRPKGDKMRDEL
B3: SLC39A7 (ZIP-7) (protein, UniProt Q92504 1-469)
chain: MARGLGAPHWVAVGLLTWATLGLLVAGLGGHDDLHDDLQEDFHGHSHRHSHEDFHHGHSHAHGHGHTHESIWHGHTHDHDHGHSHEDLHHGHSHGYSHESLYHRGHGHDHEHSHGGYGESGAPGIKQDLDAVTLWAYALGATVLISAAPFFVLFLIPVESNSPRHRSLLQILLSFASGGLLGDAFLHLIPHALEPHSHHTLEQPGHGHSHSGQGPILSVGLWVLSGIVAFLVVEKFVRHVKGGHGHSHGHGHAHSHTRGSHGHGRQERSTKEKQSSEEEEKETRGVQKRRGGSTVPKDGPVRPQNAEEEKRGLDLRVSGYLNLAADLAHNFTDGLAIGASFRGGRGLGILTTMTVLLHEVPHEVGDFAILVQSGCSKKQAMRLQLLTAVGALAGTACALLTEGGAVGSEIAGGAGPGWVLPFTAGGFIYVATVSVLPELLREASPLQSLLEVLGLLGGVIMMVLIAHLE
B4: reticulocalbin 2 (RCN2) (protein, UniProt Q14257 23-317)
chain: GKAEELHYPLGERRSDYDREALLGVQEDVDEYVKLGHEEQQKRLQAIIKKIDLDSDGFLTESELSSWIQMSFKHYAMQEAKQQFVEYDKNSDDTVTWDEYNIQMYDRVIDFDENTALDDAEEESFRKLHLKDKKRFEKANQDSGPGLSLEEFIAFEHPEEVDYMTEFVIQEALEEHDKNGDGFVSLEEFLGDYRWDPTANEDPEWILVEKDRFVNDYDKDNDGRLDPQELLPWVVPNNQGIAQEEALHLIDEMDLNGDKKLSEEEILENPDLFLTSEATDYGRQLHDDYFYHDEL

The target of the experiment is WT GABAA receptor α1 subunit (bait of WT α1β2γ2 GABAA receptors) (human). As to the kind of experiment: affinity purification with mass spectrometry; SILAC IP–MS/MS: heavy lysate of HEK293T cells stably expressing WT α1β2γ2 or α1(A322D)β2γ2 mixed 1:1 with light empty-vector lysate; 6 mg total protein immunoprecipitated with a mouse monoclonal anti-α1 antibody; lysis buffer 50 mM Tris pH 7.5, 150 mM NaCl, 1% Triton X-100; interactor: SILAC ratio over EV at least 1.30, p < 0.05, FDR no more than 0.10; three biological replicates.
As for B1, the binding result is recorded as “binds”.
With B2 the entry was “binds”; with B3, “binds”; with B4, “binds”.
